In the supplement of paper PMC10331698:
± gives the standard deviation of the averaged measurements. Most entries show no effect beyond the scatter of the controls.

Columns and labels:
Assay in all cases: level (log10 ratio to DMSO vehicle control); higher = higher biomarker level / cell amount than vehicle control
[1] = compound: NC(=O)C(F)(F)C(F)(F)F [Pentafluoropropionamide]; conditions: 2200 nM; in DMSO
Method: (§1)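 BioMAP Diversity Plus panel of 12 human primary cell co-culture systems (3C, 4H, LPS, SAg, BT, BF4T, BE3C, CASM3C, HDF3CGF, KF3CT, MyoF, Mphg). Compounds were added 1 h before stimulation and left for 24 h (MyoF 48 h; BT 72 h for soluble read-outs or 6 d for IgG). Biomarkers were read by ELISA, cytotoxicity by SRB, PBMC viability and proliferation by Alamar Blue. Each well value was divided by the mean of 8 DMSO control wells on the same plate and log10 transformed; duplicate blinded samples were tested at 4 concentrations.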

[2] = compound: NC(=O)C(F)(F)C(F)(F)C(F)(F)C(F)F; conditions: in DMSO
Method: as §1

[3] = compound: NS(=O)(=O)C(F)(F)C(F)(F)C(F)(F)C(F)(F)C(F)(F)C(F)(F)C(F)(F)C(F)(F)F [Perfluorooctanesulfonamide]; conditions: in DMSO
Method: as §1

[4] = compound: C=C(C)C(=O)OCC(F)(F)C(F)(F)C(F)(F)C(F)(F)C(F)(F)C(F)(F)C(F)(F)F; conditions: in DMSO
Method: as §1

[5] = compound: O=P(O)(O)CCC(F)(F)C(F)(F)C(F)(F)C(F)(F)C(F)(F)C(F)(F)F [2-(Perfluorohexyl)ethylphosphonic acid]; conditions: 2200 nM; in DMSO
Method: as §1

[6] = compound: OCC(F)(F)C(F)(F)C(F)(F)C(F)(F)C(F)(F)C(F)F [1H,1H,7H-Dodecafluoro-1-heptanol]; conditions: 2200 nM; in DMSO
Method: as §1

[7] = compound: C=CC(=O)OCC(F)(F)C(F)(F)C(F)(F)C(F)(F)C(F)(F)C(F)(F)C(F)(F)F [1H,1H-Perfluorooctyl acrylate]; conditions: 2200 nM; in DMSO
Method: as §1

[8] = compound: O=S(=O)(O)C(F)(F)C(F)(F)C(F)(F)C(F)(F)C(F)(F)C(F)(F)C(F)(F)C(F)(F)F [Potassium perfluorooctanesulfonate]; conditions: 2200 nM; in DMSO
Method: as §1

[9] = compound: COC(=O)C(F)(F)C(F)(F)OC(F)(C(F)(F)F)C(F)(F)OC(F)=C(F)F [Methyl perfluoro(3-(1-ethenyloxypropan-2-yloxy)propanoate)]; conditions: in DMSO
Method: as §1

[10] = compound: FC(F)(F)C(F)(F)C(F)(F)CI [Heptafluorobutyl iodide]; conditions: 2200 nM; in DMSO
Method: as §1

[11] = compound: CO[Si](C)(CCC(F)(F)C(F)(F)C(F)(F)C(F)(F)C(F)(F)C(F)(F)F)OC [Dimethoxymethyl((perfluorohexyl)ethyl)silane]; conditions: in DMSO
Method: as §1

[12] = compound: FC(F)(F)C(F)(F)C(F)(F)CC1CO1 [1H,1H-Heptafluorobutyl epoxide]; conditions: 2200 nM; in DMSO
Method: as §1

[13] = compound: O=S(=O)(F)C(F)(F)C(F)(F)C(F)(F)C(F)(F)C(F)(F)C(F)(F)C(F)(F)C(F)(F)F [Perfluorooctanesulfonyl fluoride]; conditions: 2200 nM; in DMSO
Method: as §1

[14] = compound: O=S(=O)(O)C(F)(F)C(F)(F)C(F)(F)C(F)(F)C(F)(F)C(F)(F)C(F)(F)C(F)(F)F [Perfluorooctanesulfonic acid]; conditions: 2200 nM; in DMSO
Method: as §1

[15] = compound: O=S(=O)(OCC(F)(F)F)C(F)(F)C(F)(F)C(F)(F)C(F)(F)F [2,2,2-Trifluoroethyl perfluorobutanesulfonate]; conditions: 2200 nM; in DMSO
Method: as §1

[16] = compound: O=C(O)C(F)(F)C(F)(F)C(F)F [4H-Perfluorobutanoic acid]; conditions: in DMSO
Method: as §1

[17] = compound: OCCCCC(F)(F)C(F)(F)C(F)(F)C(F)(F)F [4:4 Fluorotelomer alcohol]; conditions: 2200 nM; in DMSO
Method: as §1

[18] = compound: C=CC(F)(F)C(F)(F)C(F)(F)C(F)(F)C(F)(F)C(F)(F)C(F)(F)C(F)(F)C=C [1,8-Divinylperfluorooctane]; conditions: in DMSO
Method: as §1

Test System	level (log10) [1]	level (log10) ([2]; 2200 nM)	level (log10) ([2]; 6700 nM)	level (log10) ([2]; 20000 nM)	level (log10) ([2]; 60000 nM)	level (log10) ([3]; 2200 nM)	level (log10) ([3]; 6700 nM)	level (log10) ([3]; 20000 nM)	level (log10) ([4]; 740 nM)	level (log10) ([4]; 2200 nM)	level (log10) [5]	level (log10) [6]	level (log10) [7]	level (log10) [8]	level (log10) ([9]; 740 nM)	level (log10) ([9]; 2200 nM)	level (log10) [10]	level (log10) ([11]; 740 nM)	level (log10) ([11]; 2200 nM)	level (log10) [12]	level (log10) [13]	level (log10) [14]	level (log10) [15]	level (log10) ([16]; 2200 nM)	level (log10) ([16]; 6700 nM)	level (log10) ([16]; 20000 nM)	level (log10) ([16]; 60000 nM)	level (log10) [17]	level (log10) ([18]; 740 nM)	level (log10) ([18]; 2200 nM)
LPS:CD106/VCAM-1	-0.0185 ± 0.0035	-0.022 ± 0.038	-0.0055 ± 0.025	-0.023 ± 0.041	-0.015 ± 0.025	0.0405 ± 0.005	0.0075 ± 0.0035	0.0115 ± 0.016	-0.0285 ± 0.015	-0.0175 ± 0.00071	0.002 ± 0.02	-0.0045 ± 0.0078	0 ± 0.0057	-0.0045 ± 0.037	-0.0555 ± 0.0035	-0.0535 ± 0.011	-0.022 ± 0.014	0.001 ± 0.0028	-0.007 ± 0.023	0.0105 ± 0.042	0.0005 ± 0.0064	0.002 ± 0.0085	0.0105 ± 0.049	-0.0065 ± 0.03	-0.018 ± 0.0071	-0.0245 ± 0.011	-0.002 ± 0.025	0.004 ± 0.017	-0.0055 ± 0.0064	-0.01 ± 0.0028
LPS:CD141/Thrombomodulin	-0.017 ± 0.013	-0.0465 ± 0.005	-0.037 ± 0.023	-0.0225 ± 0.028	-0.02 ± 0.021	0.0765 ± 0.018	0.037 ± 0.072	0.0785 ± 0.066	0.0055 ± 0.044	-0.0195 ± 0.019	0.01 ± 0.15	0.018 ± 0.064	-0.0225 ± 0.019	-0.015 ± 0.016	-0.0325 ± 0.0092	-0.0425 ± 0.015	0.005 ± 0.11	0.029 ± 0.037	0.0105 ± 0.035	0.085 ± 0.03	-0.0005 ± 0.0064	-0.0115 ± 0.011	0.031 ± 0.023	-0.0075 ± 0.0021	-0.009	-0.012 ± 0.016	-0.008 ± 0.013	0.0105 ± 0.0021	-0.0235 ± 0.026	-0.018 ± 0.03
LPS:CD142/Tissue Factor	-0.0435 ± 0.03	-0.011 ± 0.018	-0.0215 ± 0.00071	0.005 ± 0.0028	-0.007 ± 0.0014	-0.006 ± 0.065	-0.024 ± 0.047	-0.043 ± 0.0071	0.0025 ± 0.04	0.008 ± 0.054	0.0185 ± 0.11	-0.008 ± 0.0014	0.007 ± 0.011	0 ± 0.05	-0.0045 ± 0.015	0.005 ± 0.052	-0.0325 ± 0.06	0.01 ± 0.0042	-0.0215 ± 0.0021	0.03 ± 0.03	0.0125 ± 0.0064	0.0125 ± 0.026	-0.0735 ± 0.033	0.0115 ± 0.019	-0.0205 ± 0.032	0.015 ± 0.033	0.0185 ± 0.0092	0.03 ± 0.021	-0.038 ± 0.055	-0.0615 ± 0.00071
LPS:CXCL8/IL-8	0.0075 ± 0.015	0.011 ± 0.021	-0.0055 ± 0.0035	-0.0025 ± 0.035	0.016 ± 0.12	-0.001 ± 0.011	0.005 ± 0.016	-0.008 ± 0.0014	0.0025 ± 0.025	-0.003 ± 0.024	0.0145 ± 0.077	0.0005 ± 0.046	0.0265 ± 0.026	0.002 ± 0.072	0.006 ± 0.0099	0.018 ± 0.0085	0.0265 ± 0.094	0.021 ± 0.044	0.0225 ± 0.016	-0.007 ± 0.014	0.0165 ± 0.022	0.0185 ± 0.022	0.0045 ± 0.023	-0.011 ± 0.028	-0.0155 ± 0.019	-0.008 ± 0.02	0.018 ± 0.024	0.036 ± 0.028	0.0135 ± 0.018	-0.0015 ± 0.018
LPS:IL-1alpha	0.0145 ± 0.0092	0.0065 ± 0.044	0.009 ± 0.011	-0.0045 ± 0.015	0.0015 ± 0.06	-0.0065 ± 0.021	-0.0195 ± 0.025	-0.013 ± 0.0071	0.021 ± 0.0071	0.0175 ± 0.026	0.007 ± 0.024	0.018 ± 0.042	0.004 ± 0.0099	0.0035 ± 0.035	-0.0275 ± 0.063	0.0285 ± 0.019	0.0395 ± 0.064	-0.007 ± 0.0042	0.017 ± 0.034	-0.007 ± 0.028	-0.0025 ± 0.023	0.051 ± 0.13	-0.033 ± 0.086	-0.0425 ± 0.0035	-0.038 ± 0.0071	-0.02 ± 0.0085	-0.0065 ± 0.023	0.0235 ± 0.037	0.0315 ± 0.028	0.025 ± 0.062
LPS:M-CSF	0.012 ± 0.037	0.0095 ± 0.0064	-0.013 ± 0.028	-0.011 ± 0.0014	0.0065 ± 0.023	0.0345 ± 0.0064	-0.0035 ± 0.032	0.05 ± 0.04	0.0035 ± 0.021	-0.0045 ± 0.016	-0.016 ± 0.12	0.0025 ± 0.016	-0.0085 ± 0.016	-0.0165 ± 0.023	0.0145 ± 0.042	-0.002 ± 0.0085	-0.0115 ± 0.0021	-0.0105 ± 0.053	-0.0265 ± 0.0035	0.0305 ± 0.044	0 ± 0.0085	0.003 ± 0.041	-0.0065 ± 0.03	0.027 ± 0.0042	-0.001 ± 0.042	-0.007 ± 0.014	-0.003 ± 0.035	0.0015 ± 0.0078	0.0185 ± 0.05	-0.0015 ± 0.042
LPS:SRB	0.0105 ± 0.0021	-0.0015 ± 0.0035	-0.011 ± 0.0071	-0.006 ± 0.0042	-0.0105 ± 0.00071	0.015 ± 0.013	0.009 ± 0.0057	-0.0625 ± 0.0078	0.019 ± 0.0028	0.0095 ± 0.0092	-0.002 ± 0.0071	-0.004 ± 0.017	-0.004 ± 0.014	-0.0055 ± 0.0021	-0.005 ± 0.014	-0.003 ± 0.0071	0.003 ± 0.0014	0.0055 ± 0.012	0.01 ± 0.024	0.002 ± 0.0099	-0.001 ± 0.011	0.003 ± 0.014	0.006 ± 0.0014	-0.0045 ± 0.0078	-0.0045 ± 0.0035	-0.0105 ± 0.0092	0.003	0.013 ± 0.02	0.012 ± 0.0042	0.0115 ± 0.0078
